Test results from US12234486B2, “Modular, microfluidic, mechanically active bioreactor for 3D, multi-tissue, tissue culture” (University of Pittsburgh—Of the Commonwealth System of …, priority 2013, dated 2025).
At least one structure is not confirmed: it was looked up by name or label, or the drawing left a doubt.

Tested on: chondrocytes in the cartilage chamber
Experiment: RT-PCR marker expression in cartilage (top) chamber of bioreactor after hormone supply
Format: cell-based
Method: FIGS. 17-20 are graphs that show differential expression of markers (as determined by RT-PCR) for a control medium that contained no estrogen or progesterone (first bar), and then different concentrations of hormones supplied to one or the other of the bioreactor chambers during week 1 (w1: 0.1 nM estradiol), week 2 (w2: 1 nM estradiol), week 3 (w3: 1 nM estradiol and 10 nM progesterone), and week 4 (w4: 0.1 nM estradiol and 50 nM progesterone). […] FIGS. 17-18 show differential expression of markers (as determined by RT-PCR) for a control medium that contained no estrogen or progesterone (first bar), and then different concentrations of hormones supplied to the chambers during week 1 (w1: 0.1 nM estradiol), week 2 (w2: 1 nM estradiol), week 3 (w3: 1 nM estradiol and 10 nM progesterone), and week 4 (w4: 0.1 nM estradiol and 50 nM progesterone).

## C[C@]12CC[C@@H]3c4ccc(O)cc4CC[C@H]3[C@@H]1CC[C@@H]2O [estradiol]
FIGS. 17-18, weeks 1 and 2 (0.1 nM, 1 nM estradiol), more pronounced when applied to the osseous side
  cartilage anabolic markers such as Sox9 and Aggrecan: downregulated
Estradiol administered to the osseous side
  cartilage hypertrophy marker ColX: upregulated
